# In the supplement of paper PMC4604168 (melanoma cell lines):
# This is one part of the list. Many values rest on one well or one pass, so single values are uncertain.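 Imaging used 1,536-well plates; nuclei positive for cleaved PARP by antibody were divided by total DNA-stained nuclei to yield the apoptosis fraction. Doses for screening kept most cells viable, and cell lines differ markedly in resting and induced cleaved-PARP levels.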
# Experiments:
# Assay in all cases: cleaved PARP positive nuclei fraction relative to DMSO control; melanoma cells; higher = more apoptosis
# Settings in all cases: library dose: low library concentration; 72 h
# 501Mel = test system: 501Mel
# A101D = test system: A101D
# A2058 = test system: A2058
# A375 = test system: A375
# C32 = test system: C32
# CBRC008 = test system: CBRC008 (line from a melanoma biopsy)
# CBRC013 = test system: CBRC013 (line from a melanoma biopsy)
# CBRC014 = test system: CBRC014 (line from a melanoma biopsy)
# CBRC016 = test system: CBRC016 (line from a melanoma biopsy)
# CBRC017 = test system: CBRC017 (line from a melanoma biopsy)
# COLO792 = test system: COLO792
# COLO800 = test system: COLO800
# COLO829 = test system: COLO829
# G361 = test system: G361
# IPC-298 = test system: IPC-298
# IST-MEL1 = test system: IST-MEL1
# LB2518-MEL = test system: LB2518-MEL
# LOXIMVI = test system: LOXIMVI
# MEL-HO = test system: MEL-HO
SMILES,cleaved PARP positive nuclei fraction (501Mel) [%],cleaved PARP positive nuclei fraction (A101D) [%],cleaved PARP positive nuclei fraction (A2058) [%],cleaved PARP positive nuclei fraction (A375) [%],cleaved PARP positive nuclei fraction (C32) [%],cleaved PARP positive nuclei fraction (CBRC008) [%],cleaved PARP positive nuclei fraction (CBRC013) [%],cleaved PARP positive nuclei fraction (CBRC014) [%],cleaved PARP positive nuclei fraction (CBRC016) [%],cleaved PARP positive nuclei fraction (CBRC017) [%],cleaved PARP positive nuclei fraction (COLO792) [%],cleaved PARP positive nuclei fraction (COLO800) [%],cleaved PARP positive nuclei fraction (COLO829) [%],cleaved PARP positive nuclei fraction (G361) [%],cleaved PARP positive nuclei fraction (IPC-298) [%],cleaved PARP positive nuclei fraction (IST-MEL1) [%],cleaved PARP positive nuclei fraction (LB2518-MEL) [%],cleaved PARP positive nuclei fraction (LOXIMVI) [%],cleaved PARP positive nuclei fraction (MEL-HO) [%]
"C[C@]1(O)C[C@@H](c2nc(-c3ccc4ccc(-c5ccccc5)nc4c3)c3c(N)nccn32)C1 + CN(C)S(=O)(=O)c1ccc2c(c1)/C(=C/c1cc3c([nH]1)CCCC3)C(=O)N2 [SU6656] (first compound 0.4 µM, partner dose 0.4 µM)",120,125,69.4,302,239,286,138,90.1,81.4,151,58.9,74.7,120,74.5,100,73.1,123,112,70.6
"NC1(c2ccc(-c3nc4ccn5c(=O)[nH]nc5c4cc3-c3ccccc3)cc2)CCC1 + COc1cc2c(Oc3ccc4[nH]c(C)cc4c3F)ncnc2cc1OCCCN1CCCC1 [cediranib] (first compound 0.4 µM, partner dose 0.4 µM)",105,56.4,101,52,119,108,128,71.8,96.5,82.9,182,25.8,127,53.6,132,111,48.2,86.7,268
"CCN(CC)CCNC(=O)c1c(C)[nH]c(/C=C2\C(=O)Nc3ccc(F)cc32)c1C [sunitinib] + CO[C@@H]1[C@H](N(C)C(=O)c2ccccc2)C[C@H]2O[C@]1(C)n1c3ccccc3c3c4c(c5c6ccccc6n2c5c31)C(=O)NC4 [Midostaurin] (first compound 0.4 µM, partner dose 0.08 µM)",174,107,88,413,76.1,41.7,326,90.9,125,52,162,133,135,147,174,78.9,64.1,144,40.5
"CN(c1ncccc1CNc1nc(Nc2ccc3c(c2)CC(=O)N3)ncc1C(F)(F)F)S(C)(=O)=O + O=C(O)c1ccc(-c2c[nH]c3ncc(-c4ccccc4)cc23)cc1C1CCCC1 [GSK650394] (first compound 0.08 µM, partner dose 0.16 µM)",41.8,227,133,69,262,325,149,28.8,106,105,179,48.8,96,142,21.9,216,49,220,146
"CS(=O)(=O)c1ccc(C(=O)Nc2ccc(Cl)c(-c3ccccn3)c2)c(Cl)c1 [vismodegib] + CN(C)S(=O)(=O)c1ccc2c(c1)/C(=C/c1cc3c([nH]1)CCCC3)C(=O)N2 [SU6656] (first compound 1 µM, partner dose 0.4 µM)",118,73.9,219,53.7,163,124,215,109,116,121,50.1,124,44,93.7,118,69.5,143,90.7,202
"NC(=O)c1ccc(N(C(N)=O)c2c(F)cccc2F)nc1-c1ccc(F)cc1F + O=C(Nc1cccc(Cl)c1)Nc1ncc(CCNc2ncnc3ccsc23)s1 [SNS314] (first compound 0.4 µM, partner dose 0.0008 µM)",109,247,51,105,125,52.1,145,78.8,136,102,67.2,101,120,126,62.6,98.1,48.3,74.7,46.9
"CS(=O)(=O)c1ccc(C(=O)Nc2ccc(Cl)c(-c3ccccn3)c2)c(Cl)c1 [vismodegib] + Cn1cncc1[C@@](N)(c1ccc(Cl)cc1)c1ccc2c(c1)c(-c1cccc(Cl)c1)cc(=O)n2C [tipifarnib] (first compound 1 µM, partner dose 0.01 µM)",94.2,146,24.7,121,93.5,184,114,102,57.7,120,127,159,63.7,133,95.7,90.4,52.7,79.2,71.8
"COc1ccc(C2=N[C@@H](c3ccc(Cl)cc3)[C@@H](c3ccc(Cl)cc3)N2C(=O)N2CCNC(=O)C2)c(OC(C)C)c1 [Nutlin-3] + COc1cc(Nc2ncc(F)c(Nc3ccc4c(n3)NC(=O)C(C)(C)O4)n2)cc(OC)c1OC [Tamatinib] (first compound 0.1 µM, partner dose 0.4 µM)",92.6,202,82.5,101,195,146,112,92.8,33.5,95.5,230,70.9,185,19.1,54,79.2,120,49.9,115
"CS(=O)(=O)c1ccc(C(=O)Nc2ccc(Cl)c(-c3ccccn3)c2)c(Cl)c1 [vismodegib] + CC1(C)NC(=O)N(c2ccc([N+](=O)[O-])c(C(F)(F)F)c2)C1=O [nilutamide] (first compound 1 µM, partner dose 1 µM)",42.8,83.2,101,36.3,117,78.5,76.3,160,255,80.9,32,80.2,168,160,144,48.9,88.2,64.5,80.6
"CCN(CC)CCNC(=O)c1c(C)[nH]c(/C=C2\C(=O)Nc3ccc(F)cc32)c1C [sunitinib] + O=C(Nc1cccc(Cl)c1)Nc1ncc(CCNc2ncnc3ccsc23)s1 [SNS314] (first compound 0.4 µM, partner dose 0.0008 µM)",83.8,97.2,101,114,54.1,96.5,342,312,63.2,80.8,82.9,175,120,138,193,62.8,45.1,29,67.2
"CC1(C)CCC(c2ccc(Cl)cc2)=C(CN2CCN(c3ccc(C(=O)NS(=O)(=O)c4ccc(N[C@H](CCN5CCOCC5)CSc5ccccc5)c(S(=O)(=O)C(F)(F)F)c4)cc3)CC2)C1 + COc1cc(Nc2ncc(F)c(Nc3ccc4c(n3)NC(=O)C(C)(C)O4)n2)cc(OC)c1OC [Tamatinib] (first compound 0.4 µM, partner dose 0.4 µM)",108,429,311,304,1060,1760,95.5,524,524,367,2140,113,213,72.8,359,158,379,237,47.1
"NC1(c2ccc(-c3nc4ccn5c(=O)[nH]nc5c4cc3-c3ccccc3)cc2)CCC1 + O=C(Nc1cccc(Cl)c1)Nc1ncc(CCNc2ncnc3ccsc23)s1 [SNS314] (first compound 0.4 µM, partner dose 0.0008 µM)",97.8,83.5,108,111,87.6,221,114,74.2,55.5,141,126,158,144,63.1,97.6,266,137,224,81.6
"C[C@]1(O)C[C@@H](c2nc(-c3ccc4ccc(-c5ccccc5)nc4c3)c3c(N)nccn32)C1 + CC(C)(C)c1cnc(CSc2cnc(NC(=O)C3CCNCC3)s2)o1 [SNS-032] (first compound 0.4 µM, partner dose 0.01 µM)",107,81.1,93.2,221,88.1,356,99.8,94.8,79.5,118,70.1,169,128,79.3,93,84.9,221,122,77.8
"NC(=O)c1ccc(N(C(N)=O)c2c(F)cccc2F)nc1-c1ccc(F)cc1F + OCCn1cc(-c2cnc3nnn(Cc4ccc5ncccc5c4)c3n2)cn1 [PF04217903] (first compound 0.4 µM, partner dose 1 µM)",159,77.6,59.5,85.7,147,143,96.1,80.1,77.7,113,112,57.8,102,77.2,87.2,126,100,115,45.7
"COc1ccc(C2=N[C@@H](c3ccc(Cl)cc3)[C@@H](c3ccc(Cl)cc3)N2C(=O)N2CCNC(=O)C2)c(OC(C)C)c1 [Nutlin-3] + Cc1cc(N2CCOCC2)cc2[nH]c(-c3c(NC[C@@H](O)c4cccc(Cl)c4)cc[nH]c3=O)nc12 [BMS536924] (first compound 0.1 µM, partner dose 0.2 µM)",223,93.7,60.1,217,113,366,78.5,106,65.4,102,76.3,125,91,62.8,95.3,99.8,50.3,113,130
"Cn1cnc2c(F)c(Nc3ccc(Br)cc3Cl)c(C(=O)NOCCO)cc21 [selumetinib] + CO[C@@H]1[C@H](N(C)C(=O)c2ccccc2)C[C@H]2O[C@]1(C)n1c3ccccc3c3c4c(c5c6ccccc6n2c5c31)C(=O)NC4 [Midostaurin] (first compound 0.015 µM, partner dose 0.08 µM)",97.4,94.3,99.4,85.1,110,266,135,91.7,250,117,147,24,101,187,116,1000,138,17.2,75.5

# Single records (already shown). Order of values: cleaved PARP positive nuclei fraction (501Mel) [%]	cleaved PARP positive nuclei fraction (A101D) [%]	cleaved PARP positive nuclei fraction (A2058) [%]	cleaved PARP positive nuclei fraction (A375) [%]	cleaved PARP positive nuclei fraction (C32) [%]	cleaved PARP positive nuclei fraction (CBRC008) [%]	cleaved PARP positive nuclei fraction (CBRC013) [%]	cleaved PARP positive nuclei fraction (CBRC014) [%]	cleaved PARP positive nuclei fraction (CBRC016) [%]	cleaved PARP positive nuclei fraction (CBRC017) [%]	cleaved PARP positive nuclei fraction (COLO792) [%]	cleaved PARP positive nuclei fraction (COLO800) [%]	cleaved PARP positive nuclei fraction (COLO829) [%]	cleaved PARP positive nuclei fraction (G361) [%]	cleaved PARP positive nuclei fraction (IPC-298) [%]	cleaved PARP positive nuclei fraction (IST-MEL1) [%]	cleaved PARP positive nuclei fraction (LB2518-MEL) [%]	cleaved PARP positive nuclei fraction (LOXIMVI) [%]	cleaved PARP positive nuclei fraction (MEL-HO) [%]
# CCN(CC)CCNC(=O)c1c(C)[nH]c(/C=C2\C(=O)Nc3ccc(F)cc32)c1C [sunitinib] + O=C(Nc1cccc(Cl)c1)Nc1ncc(CCNc2ncnc3ccsc23)s1 [SNS314] (first compound 0.4 µM, partner dose 0.0008 µM) reads 83.8	97.2	101	114	54.1	96.5	342	312	63.2	80.8	82.9	175	120	138	193	62.8	45.1	29	67.2
# NC1(c2ccc(-c3nc4ccn5c(=O)[nH]nc5c4cc3-c3ccccc3)cc2)CCC1 + COc1cc2c(Oc3ccc4[nH]c(C)cc4c3F)ncnc2cc1OCCCN1CCCC1 [cediranib] (first compound 0.4 µM, partner dose 0.4 µM) reads 105	56.4	101	52	119	108	128	71.8	96.5	82.9	182	25.8	127	53.6	132	111	48.2	86.7	268
